These results are taken from PubChem BioAssay AID463205 (Broad Institute, 2010).

Hit rate of the full screen: of about 2,400 compounds, about 20 (0.8%) were called active.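 How the source made its calls: active means AC50 no more than ten times the highest tested concentration, or full inhibition at every dose giving a flat fit (cut at about 30 µM in these data); inconclusive means flat fit with activity between 30% and 70%, or poor-quality invalid fit; inactive means AC50 more than ten times the top tested dose.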 This is one part of the list.

This experiment can be described thus: inhibitors of ADP-Glo detection reagents, dose response, artefact control for GSK-3a inhibitor project, biochemical, luminescence, cell-free, homogeneous (AID 463205).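 Further: kinase-free counter-screen against the ADP-Glo detection reagents only; potency is for inhibitors that reduce the luminescence signal.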 Conditions: 5 uM ADP. In general terms: ADP-Glo first removes unused ATP, then detects ADP through luciferase.
The AC50 is the concentration at which the activity in the assay is half-maximal. On to `CCn1c(=O)[nH]c(=O)c2c(N)c(C(=O)c3cc(F)ccc3F)sc21`, for which the AC50 was inactive: > 30 µM.
Take `CC1=C(C(=O)OC(C)C)C(c2cccc(F)c2)n2ncnc2N1` (configuration not stated): the AC50 is inactive: > 30 µM.
Consider `O/N=C1/CC/C(=N\O)c2nn(-c3ccccc3)nc21`, for which the AC50 is inactive: > 30 µM.
With `CC1=C(C(=O)OC(C)C)C(c2cccnc2)n2ncnc2N1` (configuration not stated), the AC50 is inactive: > 30 µM.
On to `Nc1c(S(=O)(=O)c2ccccc2)nnn1-c1ccccc1`, for which the AC50 was inactive: > 30 µM.
Next, `Cc1cc(/C=N/O)c(C)n1-c1ccc(Br)cc1`: inactive: > 30 µM.
Regarding `Cc1cccc(C(=O)OCC(=O)Nc2c(C)n(C)n(-c3ccccc3)c2=O)c1`, the AC50 was inactive: > 30 µM.
As to `O=C(Nc1ccccc1)c1cc(-n2cnnc2)ccc1Cl`, the AC50 was inactive: > 30 µM.
Consider `Brc1ccc(C2=Nn3c(nnc3-c3cccnc3)SC2)s1`, for which the AC50 is inactive: > 30 µM.
As to `O=C(c1ccco1)N(Cc1ccc([N+](=O)[O-])cc1)c1ccc(Br)cc1`, the AC50 was inactive: > 30 µM.
Then `CCOC(=O)c1sc(NC(=O)CSc2nnc(-c3ccc(OC)cc3)n2CCOC)nc1C`, with inactive: > 30 µM; and `CCc1cc(C(=O)c2ccc(C)cc2)c(NC(=O)CCl)s1`, with inactive: > 30 µM; and `Oc1ccc(-c2nnc(-c3ccccc3)c(-c3ccccc3)n2)cc1`, with inactive: > 30 µM.
With `CCC(=O)N1CCN(c2cc(NCC3CCCO3)c(F)cc2[N+](=O)[O-])CC1` (configuration not stated), the AC50 was inactive: > 30 µM.
Next, `COc1cc(C2C(C#N)=C(N)Oc3n[nH]c(-c4cccnc4)c32)cc(Br)c1O` (configuration not stated): inactive: > 30 µM.
Take `Cc1[nH]c2ccccc2c1N=Nc1cccc(C(=O)O)c1`: the AC50 was inactive: > 30 µM.
Then `COc1ccc(/C=C/c2nc(N)nc(-c3ccccc3O)n2)cc1OC`, with inactive: > 30 µM; and `N#Cc1sc2nc(-c3cccs3)cc(-c3ccccc3)c2c1N`, with inactive: > 30 µM; and `Cc1ccc(S(=O)(=O)N(CC(O)CN2CCCC2)c2ccccc2)cc1` (configuration not stated), with inactive: > 30 µM.
On to `COc1ccc(/C=C(/NC(=O)c2ccc([N+](=O)[O-])cc2)C(=O)NC(C)(C)C)cc1`, for which the AC50 is inactive: > 30 µM.
Next, `CC(=C/c1ccccc1)/C=N/NC(=O)c1nnn(-c2nonc2N)c1CN1CCC(C)CC1`: inactive: > 30 µM; `CCN1CCN(CC(=O)Nc2nc3ccc(OC)cc3s2)CC1`: inactive: > 30 µM; `CC(C)CC(=O)Nc1ccc(-c2cn3cccnc3n2)cc1`: inactive: > 30 µM.
Then `COc1ccc(CNc2cc(NCCCO)c([N+](=O)[O-])c3nonc23)cc1`, with inactive: > 30 µM.
Next, `Fc1cccc(/C=N/Nc2nccnc2Cl)c1`: inactive: > 30 µM.
For `Nc1nnc(SCC(=O)Nc2sc3c(c2C(=O)c2ccccc2)CCCC3)s1`, the AC50 is inactive: > 30 µM.
For the compound `c1ccc(CNc2ncnc3sc4c(c23)CCCC4)nc1`, the AC50 is inactive: > 30 µM.
On to `COc1ccc(CNC(=O)CN(CC2CCCO2)C(=O)CNS(=O)(=O)c2ccccc2)cc1` (configuration not stated), for which the AC50 is inactive: > 30 µM.
For `NS(=O)(=O)c1ccc(Nc2nc(-c3ccc(F)cc3)cs2)cc1`, the AC50 was inactive: > 30 µM.
Next, `O=C1NC(=Nc2ccccc2Cl)S/C1=C\c1cccc([N+](=O)[O-])c1`: inactive: > 30 µM; `COc1ccc(/C=C2\Oc3cc(OCC(N)=O)ccc3C2=O)cc1OC`: inactive: > 30 µM.
As for `COc1ccc2c(=O)c3c(=O)n(Cc4ccco4)c(-c4ccco4)nc3oc2c1`, the AC50 was inactive: > 30 µM.
In the case of `CC(=O)Nc1ncc(Cc2cccc(Cl)c2Cl)s1`, the AC50 is inactive: > 30 µM.
With `O=C(CCSc1nc(-c2ccco2)cc(C(F)(F)F)n1)NCc1cccs1`, the AC50 was inactive: > 30 µM.
Then `O=C(CSc1nc2[nH]ncc2c(=O)n1-c1ccc(Cl)c(Cl)c1)NCc1ccccc1Cl`, with inactive: > 30 µM; and `COc1ccc(-c2csc3ncnc(NCCCO)c23)cc1`, with inactive: > 30 µM.
Then `CCOC(=O)c1c(NC(=O)CN2C(=O)NC3(CCC(C)CC3)C2=O)sc(C)c1CC` (configuration not stated), with inactive: > 30 µM.
For the compound `O=C(COC(=O)Cc1ccc(F)cc1)Nc1ccc(Cl)cn1`, the AC50 is inactive: > 30 µM.
Next, `CCOC(=O)c1nnn(-c2nonc2N)c1CS(=O)(=O)c1ccccc1`: inactive: > 30 µM; `C=CCN1C(=O)/C(=C\c2ccco2)C(C(=O)OC)=C1C`: inactive: > 30 µM; `CC(=O)N1CC=C2C(C#N)=C(N)C(C#N)(C#N)[C@H](c3ccoc3)[C@H]2C1`: inactive: > 30 µM.
Then `CCCCc1ccc(NC(=O)N[C@@H](CC(C)C)C(=O)O)cc1`, with inactive: > 30 µM.
Next, `CCN(CC)CCNC(=O)c1ccc(NC(=O)C2CCN(c3ncnc4sc(C)c(C)c34)CC2)cc1`: inactive: > 30 µM; `Cc1nn(-c2ccccc2)c(C)c1/C=C/C(=O)OCC(=O)Nc1ccc(C(N)=O)cc1`: inactive: > 30 µM; `COc1ccc(C2=Nn3c(nnc3-c3ccncc3)SC2)cc1`: inactive: > 30 µM.
In the case of `N#C/C(=N\Nc1cccc(F)c1)C(=O)C1CC1`, the AC50 is inactive: > 30 µM.
Then `Cc1nc2ccccc2n2c(-c3ccccc3)c3c(=O)n(C)c(=O)n(C)c3c12`, with inactive: > 30 µM; and `CCOC(=O)C1CCCN(c2c(C(=O)c3ccccc3)cnc3ccc(OC)cc23)C1` (configuration not stated), with inactive: > 30 µM.
For the compound `CCOC(=O)C1CCCN(Cc2sccc2C)C1` (configuration not stated), the AC50 was inactive: > 30 µM.
Next, `Oc1[nH]c2ccc(Br)cc2c1N=Nc1ccc(F)cc1`: inactive: > 30 µM; `C/C(=C(/CCO)SSCC1CCCO1)N(C=O)Cc1cnc(C)nc1N` (configuration not stated): inactive: > 30 µM; `CNc1nc(Cl)c(SC)c(NC2CCCCC2)n1`: inactive: > 30 µM.
Then `N#CC(C#N)=Cc1c[nH]c(=O)c(C#N)c1Nc1ccccc1`, with inactive: > 30 µM; and `CCOC(=O)c1ccc(N2CSC3=C(C#N)C(c4ccc(OC)cc4OC)CC(=O)N3C2)cc1` (configuration not stated), with inactive: > 30 µM; and `O=C(C[n+]1ccccc1)c1ccc(Cl)cc1`, with inactive: > 30 µM.
`N#Cc1c(NC(=O)c2ccc(Br)o2)n(-c2ccccc2)c2nc3ccccc3nc12`: the AC50 is inactive: > 30 µM.
For the compound `OCc1cn(-c2ccccc2)nn1`, the AC50 was inactive: > 30 µM.
Next, `Nc1nonc1-c1nc2ccccc2n1CCC(=O)O`: inactive: > 30 µM; `COc1cc(/C=N/NC(=O)c2ccoc2C)ccc1O`: inactive: > 30 µM.
Regarding `CCc1ccc(C2CC(c3cccc(Cl)c3)n3nc(N)nc3N2)cc1` (configuration not stated), the AC50 was inactive: > 30 µM.
Then `O=C1C2C3c4ccccc4C(c4ccccc43)C2C(=O)N1Cc1cccnc1` (configuration not stated), with inactive: > 30 µM.
Then `COc1cccc2c1C(=O)O/C2=C/c1ccc2c(c1)OCO2`, with inactive: > 30 µM; and `CCOC(=O)c1[nH]c(C)c(C(=O)OCCOc2cccc(C)c2)c1C`, with inactive: > 30 µM; and `Cc1ccnc(NC(=O)CCC(=O)N(CC(=O)NCc2ccccc2)Cc2ccco2)c1`, with inactive: > 30 µM.
Next, `O=C(c1coc2ccc(O)c(CN3CCOCC3)c12)C1CC1`: inactive: > 30 µM; `O=C(O)C1CC(O)CN1C(=S)Nc1ccccc1` (configuration not stated): inactive: > 30 µM.
Turning to `S=C(NCc1ccccc1)Nc1cccc2cnccc12`, the AC50 is inactive: > 30 µM.
With `O=C(COC(=O)c1ccco1)Nc1ccc(Cl)cn1`, the AC50 is inactive: > 30 µM.
Regarding `CCCCc1ccc(NC(=O)N[C@H](C(=O)O)C(C)CC)cc1` (some centres not stated), the AC50 was inactive: > 30 µM.
Then `COc1cc(C(=O)NNC(=O)C2CSC3(C)CCC(=O)N23)cc(OC)c1OC` (configuration not stated), with inactive: > 30 µM.
Next, `COc1ccccc1/C=N/NC(=O)c1ccccc1Cl`: inactive: > 30 µM.
Then `Nc1nonc1-n1nnc(C(=O)N/N=C/c2ccncc2)c1CSc1ccc(Cl)cc1`, with inactive: > 30 µM.
As for `CCOC(=O)c1cnc2cc(F)c(F)cc2c1N1CCN(C)CC1`, the AC50 was inactive: > 30 µM.
Next, `CCOC(=O)/C(C#N)=C1/SC(CCO)C(=O)N1c1ccccc1` (configuration not stated): inactive: > 30 µM; `COc1cccc(C(C[N+](=O)[O-])c2c(C)[nH]n(-c3ccccc3)c2=O)c1` (configuration not stated): inactive: > 30 µM; `CSc1nc2sc3c(c2c(=O)[nH]1)CCC(C)C3` (configuration not stated): inactive: > 30 µM.
On to `CC1=C(C(=O)OC2CCCCC2)C(c2cccs2)n2c(nc3ccccc32)N1` (configuration not stated), for which the AC50 is inactive: > 30 µM.
Next, `COc1cc(/C=N/NC(=O)c2cccs2)ccc1O`: inactive: > 30 µM; `CN1/C(=C/C(=S)NC(=O)C2CCC2)C(C)(C)c2ccccc21`: inactive: > 30 µM.
Next, `Cc1noc(C)c1COc1cccc(C(=O)OC(C)C(=O)Nc2c(C)n(C)n(-c3ccccc3)c2=O)c1` (configuration not stated): inactive: > 30 µM.
Then `Cc1nc2sc3c(c2c(=O)o1)CC(C)(C)OC3`, with inactive: > 30 µM; and `CC(=O)Oc1cc(O)c2c(=O)c(OC(C)=O)c(-c3ccc(OC(C)=O)c(OC(C)=O)c3)oc2c1`, with inactive: > 30 µM; and `OCc1nnn(-c2ccccc2)c1CO`, with inactive: > 30 µM.
In the case of `CC1CN(c2nc(Nc3ccccc3F)nc(N)c2[N+](=O)[O-])CC(C)O1` (configuration not stated), the AC50 was inactive: > 30 µM.
Take `Cc1ccc(CSCCNC(=O)c2ccccc2)cc1`: the AC50 is inactive: > 30 µM.
Consider `COc1ccc(NC(=S)Nc2ccc3cn[nH]c3c2)cc1`, for which the AC50 is inactive: > 30 µM.
For the compound `COc1ccc(/C=C/c2nc(N)nc(-c3ccccc3O)n2)cc1`, the AC50 was inactive: > 30 µM.
`c1ccc2c(c1)ccc1nnc(-c3ccc4c(c3)OCO4)n12`: the AC50 is inactive: > 30 µM.
Then `O=[N+]([O-])c1ccc(Nc2nc(NC3CCCCC3)nc(N3CCCC3)n2)cc1`, with inactive: > 30 µM; and `CN(C)Cc1c(C(=O)N/N=C/c2ccco2)nnn1-c1nonc1N`, with inactive: > 30 µM.
With `Clc1ccc(CNc2ccc3nnc(-c4ccccc4)n3n2)cc1`, the AC50 is inactive: > 30 µM.
Then `Oc1ccc(-c2nnc(-c3ccc(O)cc3)nn2)cc1`, with inactive: > 30 µM.
